Values from PubChem BioAssay AID504774 (Drosophila RNAi Screening Center, 2011)
In all, the deposit lists about 23,000 reagents; below is a random part of those with a known target gene and a result. 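Values are quantile-normalised luminescence on an arbitrary scale; higher means more cells surviving MMS.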 A plus sign joins genes that one reagent is predicted to hit. Further read-outs or replicates are left out here.

Purpose: 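Genes required for cells to withstand methyl methanesulphonate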 (primary screen)
Cell system: Drosophila Kc167 cells
Knock-down reagent: long dsRNA against Drosophila genes, about 0.25 µg dsRNA per well
Timing: about 6 days: 3 days knock-down, then 3 days with or without MMS
Conditions: methyl methanesulphonate 0.004% (w/v) for 3 days after knock-down
Read-out: 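Viability in wells given MMS, read as ATP luminescence, normalised by quantiles plate by plate and averaged across replicates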
Direction: mean viability with MMS: higher = more surviving cells after MMS

mean viability with MMS, by gene knocked down and reagent
Tsp66A + CG42661 + CG42660: SID104190025 3.66e6
Adck5 (aarF domain containing kinase 5): SID104190682 3.64e6
ND-42 (NADH dehydrogenase (ubiquinone) 42 kDa subunit): SID104196546 3.51e6
CG18731: SID104195169 3.40e6
Roc2 (Regulator of cullins 2): SID104187105 3.53e6
Gr64a (Gustatory receptor 64a): SID104201388 3.24e6
CG6006: SID104192929 3.53e6; SID104195738 3.60e6
Tim8: SID104200083 3.63e6
ppk30 (pickpocket 30): SID104195094 3.62e6
Apc2 (Adenomatous polyposis coli 2): SID104193907 3.72e6
CG17085 (retired record): SID104182357 3.62e6; SID104182358 3.66e6
dar1 (dendritic arbor reduction 1): SID104187841 3.73e6; SID104188025 3.63e6
Cds (CDP-diacylglycerol synthase): SID104190730 3.55e6
Or65c (Odorant receptor 65c): SID104201100 3.40e6
bab1 (bric a brac 1): SID104188171 3.67e6; SID104188501 3.64e6; SID104201513 3.67e6
Tep3 (Thioester-containing protein 3): SID104183244 3.12e6
ppk14 (pickpocket 14): SID104183030 3.48e6
phu (phurba tashi): SID104196182 3.55e6
COX4 (Cytochrome c oxidase subunit 4): SID104181883 3.14e6
CG13088: SID104181984 3.55e6
CR33317 (pseudo): SID104182445 3.64e6

Quoted from above (7 entries):
mean viability with MMS, by gene knocked down and reagent
Or65c (Odorant receptor 65c): SID104201100 3.40e6
bab1 (bric a brac 1): SID104188171 3.67e6; SID104188501 3.64e6; SID104201513 3.67e6
Tep3 (Thioester-containing protein 3): SID104183244 3.12e6
ppk14 (pickpocket 14): SID104183030 3.48e6
phu (phurba tashi): SID104196182 3.55e6

Further entries follow.
mean viability with MMS, by gene knocked down and reagent
CG34267: SID104187673 3.58e6
Seipin: SID104198446 3.63e6
Dora (Dorado): SID104199406 3.50e6; SID104199573 3.78e6; SID104199826 3.51e6; SID104199827 3.25e6
CG17819: SID104195071 3.61e6
CG14567: SID104191520 3.61e6
Fgop2 (Fibroblast growth factor receptor 1 oncogene partner 2): SID104181808 3.50e6
CG3679: SID104199138 3.55e6
SelG (Selenoprotein G): SID104199600 3.57e6
Acbp4 (Acyl-CoA binding protein 4): SID104190815 3.51e6
tara (taranis): SID104196868 3.54e6; SID104202371 3.83e6
CG17198 + CG17197: SID104194982 3.52e6; SID104194983 3.66e6
CG16926: SID104186429 3.62e6
EloA (Elongin A): SID104195901 3.45e6
wb (wing blister): SID104181167 2.79e6; SID104183426 3.61e6; SID104202360 2.86e6
FER (FER tyrosine kinase): SID104192527 3.44e6; SID104196465 3.50e6
e(y)3 (enhancer of yellow 3): SID104199242 3.61e6
Bub3: SID104193960 3.40e6
CG14013: SID104182136 3.46e6
robl62A: SID104187945 3.56e6
CG18622: SID104195152 3.64e6
wcd (wicked): SID104186843 3.52e6
CG14645: SID104192023 3.62e6
Ugt37E1 (UDP-glycosyltransferase family 37 member E1): SID104182040 3.63e6
Obp50d (Odorant-binding protein 50d): SID104185275 3.48e6
CG15262: SID104181767 3.48e6
wol (wollknaeuel): SID104182869 3.59e6
Rh5 (Rhodopsin 5): SID104183204 3.51e6
PICK1 (Protein interacting with C kinase 1): SID104182728 3.53e6
PolZ2 (DNA polymerase zeta subunit 2): SID104192117 3.55e6
CG14882: SID104194798 3.54e6
CG3638: SID104198325 3.35e6
CG32486: SID104188205 3.48e6; SID104188280 3.53e6
Polr2G (RNA polymerase II subunit G): SID104195860 3.06e6
